These are yes or no findings as the source states them, for the method shown. Binding seen in cells or lysates may run through a third protein. Some results given as binding are weak or reduced against the parent protein; the word gives no strength.
Biological target: EB1-mRFP (human EB1 with monomeric red fluorescent protein fused to the C-terminus through an RDP linker), expressed in rat ventricular myocytes by adenovirus (human) (UniProt Q15691)
Assay: co-IP; rat ventricular myocytes transduced with Adv-EB1-mRFP (and Adv-GFP-NaV1.5), 1% Triton lysis buffer; protein A/G magnetic beads with mCherry rabbit Ab at 4°C overnight; immunoblot with EB1 rat Ab

B1: native EB1 of rat ventricular myocytes (protein, UniProt Q66HR2 1-268)
chain: MAVNVYSTSVTSDNLSRHDMLAWINESLQLNLTKIEQLCSGAAYCQFMDMLFPGSIALKKVKFQAKLEHEYIQNFKILQAGFKRMGVDKIIPVDKLVKGKFQDNFEFVQWFKKFFDANYDGKEYDPVAARQGQETAVAPSLVAPALSKPKKPLGSGSAAPQRPIATQRTTAAPKAGPGMVRKNPGMGNGDDEAAELMQQVKVLKLTVEDLEKERDFYFGKLRNIELICQENEGENDPVLQRIVDILYATDEGFVIPDEGGPQEEQEEY
For B1, the binding was “binds”.

From article PMC10791559
